Measured values: the supplement of paper PMC6411743
± gives the standard deviation of the averaged measurements. The entries are a selection whose mix differs from that of the whole data set.

The chains behind the UniProt entries cited, without tags or fusion partners. Where a name states a change or a piece, a line headed by the entry shows the natural chain unless it says otherwise.
UniProt Q00796: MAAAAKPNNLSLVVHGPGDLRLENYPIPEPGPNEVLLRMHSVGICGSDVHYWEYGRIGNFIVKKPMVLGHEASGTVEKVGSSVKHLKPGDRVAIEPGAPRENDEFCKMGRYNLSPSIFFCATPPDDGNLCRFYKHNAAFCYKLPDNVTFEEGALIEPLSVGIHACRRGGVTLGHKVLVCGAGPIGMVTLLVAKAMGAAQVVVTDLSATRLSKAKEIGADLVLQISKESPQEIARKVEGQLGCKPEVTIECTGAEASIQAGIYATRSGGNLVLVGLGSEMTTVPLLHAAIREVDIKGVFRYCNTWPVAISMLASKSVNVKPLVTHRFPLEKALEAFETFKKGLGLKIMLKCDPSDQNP
UniProt P62072: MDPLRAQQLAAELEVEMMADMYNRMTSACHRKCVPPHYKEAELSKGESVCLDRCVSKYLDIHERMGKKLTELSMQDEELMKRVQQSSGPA
UniProt P62942, whole entry: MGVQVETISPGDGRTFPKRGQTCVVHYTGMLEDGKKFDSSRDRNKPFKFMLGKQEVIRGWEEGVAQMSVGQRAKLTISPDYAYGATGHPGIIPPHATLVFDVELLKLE
UniProt P56524: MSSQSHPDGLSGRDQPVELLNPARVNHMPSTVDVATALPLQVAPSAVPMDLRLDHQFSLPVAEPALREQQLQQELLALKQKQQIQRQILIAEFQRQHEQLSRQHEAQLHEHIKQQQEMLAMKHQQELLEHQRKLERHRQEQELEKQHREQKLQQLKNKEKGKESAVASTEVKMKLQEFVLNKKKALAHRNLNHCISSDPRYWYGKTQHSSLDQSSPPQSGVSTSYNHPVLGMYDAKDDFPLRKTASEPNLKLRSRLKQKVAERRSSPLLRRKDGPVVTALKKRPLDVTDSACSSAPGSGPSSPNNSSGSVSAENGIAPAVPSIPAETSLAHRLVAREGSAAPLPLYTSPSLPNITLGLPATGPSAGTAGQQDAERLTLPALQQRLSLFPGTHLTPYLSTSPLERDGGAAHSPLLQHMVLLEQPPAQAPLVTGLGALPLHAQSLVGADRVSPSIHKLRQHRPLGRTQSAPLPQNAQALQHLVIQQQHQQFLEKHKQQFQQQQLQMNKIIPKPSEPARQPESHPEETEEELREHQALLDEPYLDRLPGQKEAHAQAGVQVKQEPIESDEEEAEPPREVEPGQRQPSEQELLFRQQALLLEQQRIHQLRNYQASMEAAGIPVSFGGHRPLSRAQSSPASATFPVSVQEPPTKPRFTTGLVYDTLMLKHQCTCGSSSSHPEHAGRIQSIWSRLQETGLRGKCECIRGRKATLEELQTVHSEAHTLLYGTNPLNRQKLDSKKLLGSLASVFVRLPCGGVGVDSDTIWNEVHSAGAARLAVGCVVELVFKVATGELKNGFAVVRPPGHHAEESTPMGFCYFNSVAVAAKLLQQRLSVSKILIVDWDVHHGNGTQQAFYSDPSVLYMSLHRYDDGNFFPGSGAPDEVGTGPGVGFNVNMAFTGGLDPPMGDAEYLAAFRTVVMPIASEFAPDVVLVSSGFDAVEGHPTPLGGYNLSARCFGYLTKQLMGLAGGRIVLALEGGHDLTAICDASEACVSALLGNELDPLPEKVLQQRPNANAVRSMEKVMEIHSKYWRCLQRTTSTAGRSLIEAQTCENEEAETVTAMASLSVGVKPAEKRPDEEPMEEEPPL
UniProt Q02224: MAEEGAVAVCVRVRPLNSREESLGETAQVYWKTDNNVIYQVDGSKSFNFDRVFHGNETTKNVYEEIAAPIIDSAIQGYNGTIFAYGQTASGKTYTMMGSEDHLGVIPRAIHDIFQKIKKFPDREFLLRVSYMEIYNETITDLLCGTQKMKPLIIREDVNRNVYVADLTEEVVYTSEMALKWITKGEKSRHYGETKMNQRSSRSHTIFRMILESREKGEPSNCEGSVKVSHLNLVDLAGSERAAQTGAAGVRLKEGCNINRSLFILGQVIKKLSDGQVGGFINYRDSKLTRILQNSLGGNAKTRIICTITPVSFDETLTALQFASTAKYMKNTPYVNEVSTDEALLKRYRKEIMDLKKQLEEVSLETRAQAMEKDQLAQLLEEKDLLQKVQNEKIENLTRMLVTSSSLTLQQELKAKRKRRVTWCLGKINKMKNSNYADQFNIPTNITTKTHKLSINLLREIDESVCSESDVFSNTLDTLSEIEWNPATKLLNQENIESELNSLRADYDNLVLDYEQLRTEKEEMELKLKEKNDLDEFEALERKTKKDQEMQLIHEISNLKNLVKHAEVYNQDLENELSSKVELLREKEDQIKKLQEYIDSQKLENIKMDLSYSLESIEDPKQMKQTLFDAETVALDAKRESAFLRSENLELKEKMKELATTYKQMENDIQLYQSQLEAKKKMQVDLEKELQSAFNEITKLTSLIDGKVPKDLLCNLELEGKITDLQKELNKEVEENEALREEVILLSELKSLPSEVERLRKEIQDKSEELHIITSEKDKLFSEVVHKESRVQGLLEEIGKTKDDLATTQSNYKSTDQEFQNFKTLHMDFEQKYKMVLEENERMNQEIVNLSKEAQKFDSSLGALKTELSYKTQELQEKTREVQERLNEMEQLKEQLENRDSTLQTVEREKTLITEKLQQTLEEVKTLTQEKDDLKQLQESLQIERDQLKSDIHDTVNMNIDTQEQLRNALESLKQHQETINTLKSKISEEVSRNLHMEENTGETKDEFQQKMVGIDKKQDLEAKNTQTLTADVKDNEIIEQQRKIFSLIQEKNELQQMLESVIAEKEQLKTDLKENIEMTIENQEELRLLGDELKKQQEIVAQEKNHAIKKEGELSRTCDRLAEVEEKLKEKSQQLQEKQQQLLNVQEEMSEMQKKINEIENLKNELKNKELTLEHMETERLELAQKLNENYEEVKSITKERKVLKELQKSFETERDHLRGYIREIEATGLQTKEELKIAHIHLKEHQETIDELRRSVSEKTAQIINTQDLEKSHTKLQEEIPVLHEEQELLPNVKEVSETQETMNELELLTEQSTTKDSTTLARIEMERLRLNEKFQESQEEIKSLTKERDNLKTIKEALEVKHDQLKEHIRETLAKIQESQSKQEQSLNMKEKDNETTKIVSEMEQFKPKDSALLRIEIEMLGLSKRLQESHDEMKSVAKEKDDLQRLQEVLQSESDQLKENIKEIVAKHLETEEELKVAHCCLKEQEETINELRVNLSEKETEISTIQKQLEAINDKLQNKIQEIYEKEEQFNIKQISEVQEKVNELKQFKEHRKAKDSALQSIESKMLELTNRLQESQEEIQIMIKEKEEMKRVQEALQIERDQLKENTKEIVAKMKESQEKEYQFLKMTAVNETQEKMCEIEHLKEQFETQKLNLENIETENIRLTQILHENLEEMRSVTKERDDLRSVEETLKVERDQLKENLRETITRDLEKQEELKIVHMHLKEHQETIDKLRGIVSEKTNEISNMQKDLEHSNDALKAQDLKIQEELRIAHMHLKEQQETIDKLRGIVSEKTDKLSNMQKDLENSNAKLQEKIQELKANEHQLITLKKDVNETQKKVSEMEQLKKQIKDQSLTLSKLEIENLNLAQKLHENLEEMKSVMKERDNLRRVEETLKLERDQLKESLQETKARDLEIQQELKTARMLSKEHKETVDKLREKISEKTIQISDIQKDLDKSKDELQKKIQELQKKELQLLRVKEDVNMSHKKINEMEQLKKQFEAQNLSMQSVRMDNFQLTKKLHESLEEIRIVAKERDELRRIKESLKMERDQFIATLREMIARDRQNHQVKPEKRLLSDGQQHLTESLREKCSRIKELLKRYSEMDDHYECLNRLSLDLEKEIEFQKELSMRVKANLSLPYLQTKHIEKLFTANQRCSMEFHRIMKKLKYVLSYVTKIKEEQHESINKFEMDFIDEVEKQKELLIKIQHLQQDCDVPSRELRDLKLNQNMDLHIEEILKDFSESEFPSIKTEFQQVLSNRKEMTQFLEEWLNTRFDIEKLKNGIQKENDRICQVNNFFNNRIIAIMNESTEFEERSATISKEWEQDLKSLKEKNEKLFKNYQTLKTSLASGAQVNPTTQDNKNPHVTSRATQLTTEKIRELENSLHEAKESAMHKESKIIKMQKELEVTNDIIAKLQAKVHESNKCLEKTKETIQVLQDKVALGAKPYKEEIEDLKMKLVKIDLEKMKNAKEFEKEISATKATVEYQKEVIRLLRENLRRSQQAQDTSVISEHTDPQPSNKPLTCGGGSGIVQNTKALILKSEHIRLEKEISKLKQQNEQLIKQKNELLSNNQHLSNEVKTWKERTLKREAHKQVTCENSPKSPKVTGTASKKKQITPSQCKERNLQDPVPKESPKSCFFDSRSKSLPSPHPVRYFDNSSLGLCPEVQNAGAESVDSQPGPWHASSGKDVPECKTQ
UniProt P61129: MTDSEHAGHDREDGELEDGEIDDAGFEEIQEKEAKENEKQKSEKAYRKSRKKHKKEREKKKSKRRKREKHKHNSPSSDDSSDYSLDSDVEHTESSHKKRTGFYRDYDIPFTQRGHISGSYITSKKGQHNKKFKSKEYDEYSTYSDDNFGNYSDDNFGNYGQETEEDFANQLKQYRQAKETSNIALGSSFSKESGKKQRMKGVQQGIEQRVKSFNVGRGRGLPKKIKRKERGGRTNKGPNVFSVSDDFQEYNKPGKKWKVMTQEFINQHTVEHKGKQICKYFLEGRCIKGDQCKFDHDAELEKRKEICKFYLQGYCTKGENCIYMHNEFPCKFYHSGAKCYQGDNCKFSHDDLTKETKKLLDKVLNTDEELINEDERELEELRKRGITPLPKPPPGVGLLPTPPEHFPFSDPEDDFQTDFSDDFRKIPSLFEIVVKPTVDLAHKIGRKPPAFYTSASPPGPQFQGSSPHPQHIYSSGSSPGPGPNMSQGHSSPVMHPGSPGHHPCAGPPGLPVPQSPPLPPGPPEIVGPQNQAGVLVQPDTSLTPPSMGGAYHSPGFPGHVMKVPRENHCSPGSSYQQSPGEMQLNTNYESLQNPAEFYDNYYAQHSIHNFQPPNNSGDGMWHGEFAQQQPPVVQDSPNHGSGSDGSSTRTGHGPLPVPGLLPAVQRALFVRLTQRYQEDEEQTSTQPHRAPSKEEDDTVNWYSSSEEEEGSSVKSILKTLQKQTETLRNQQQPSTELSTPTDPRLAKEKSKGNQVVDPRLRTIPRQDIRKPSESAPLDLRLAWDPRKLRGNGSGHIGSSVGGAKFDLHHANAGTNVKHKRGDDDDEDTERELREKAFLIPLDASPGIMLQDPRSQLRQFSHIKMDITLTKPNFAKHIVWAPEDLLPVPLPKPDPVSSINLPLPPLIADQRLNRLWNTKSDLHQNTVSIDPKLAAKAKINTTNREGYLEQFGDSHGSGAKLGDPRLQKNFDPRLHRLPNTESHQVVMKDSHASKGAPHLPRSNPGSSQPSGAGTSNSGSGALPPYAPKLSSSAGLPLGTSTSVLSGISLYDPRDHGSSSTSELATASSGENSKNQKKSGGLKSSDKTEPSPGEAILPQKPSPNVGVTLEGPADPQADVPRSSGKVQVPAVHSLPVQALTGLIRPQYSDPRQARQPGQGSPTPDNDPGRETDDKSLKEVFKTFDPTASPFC
UniProt Q02241: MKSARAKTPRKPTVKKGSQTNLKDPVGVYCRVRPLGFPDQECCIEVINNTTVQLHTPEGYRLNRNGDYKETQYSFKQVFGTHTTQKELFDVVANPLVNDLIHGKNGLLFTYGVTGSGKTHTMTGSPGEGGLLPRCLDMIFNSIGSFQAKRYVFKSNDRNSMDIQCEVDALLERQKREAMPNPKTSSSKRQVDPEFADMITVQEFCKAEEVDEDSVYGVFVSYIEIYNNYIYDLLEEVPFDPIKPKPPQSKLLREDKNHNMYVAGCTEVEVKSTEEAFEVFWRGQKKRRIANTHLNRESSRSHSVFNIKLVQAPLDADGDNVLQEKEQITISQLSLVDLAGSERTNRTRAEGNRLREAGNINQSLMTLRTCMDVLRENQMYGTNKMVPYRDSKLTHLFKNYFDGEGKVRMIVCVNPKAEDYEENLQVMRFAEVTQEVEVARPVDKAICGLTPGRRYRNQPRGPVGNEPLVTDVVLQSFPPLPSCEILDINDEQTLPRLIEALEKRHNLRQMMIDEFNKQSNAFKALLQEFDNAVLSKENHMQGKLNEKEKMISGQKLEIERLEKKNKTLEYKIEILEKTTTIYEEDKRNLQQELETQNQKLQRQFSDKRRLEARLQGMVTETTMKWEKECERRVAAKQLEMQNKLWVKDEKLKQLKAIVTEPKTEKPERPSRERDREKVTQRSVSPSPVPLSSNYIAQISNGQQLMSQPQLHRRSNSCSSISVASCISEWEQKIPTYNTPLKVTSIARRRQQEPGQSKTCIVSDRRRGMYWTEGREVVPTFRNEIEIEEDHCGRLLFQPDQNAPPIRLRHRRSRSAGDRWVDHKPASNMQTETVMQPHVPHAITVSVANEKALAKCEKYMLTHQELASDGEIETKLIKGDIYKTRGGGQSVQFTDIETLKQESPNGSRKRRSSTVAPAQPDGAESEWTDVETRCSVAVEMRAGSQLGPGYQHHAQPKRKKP

Compound: Nc1ncnc2c1ncn2[C@@H]1O[C@H](COP(=O)(O)OP(=O)(O)NP(=O)(O)O)[C@@H](O)[C@H]1O [adenylyl imidodiphosphate]
Assay: NP40-soluble protein abundance relative to vehicle (solubility fold change) (ratio); higher = more soluble protein in presence of AMP-PNP
How it was run: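 Jurkat crude lysate (Dounce-homogenised) was treated with eight concentrations from 0.1 to 10 mM for 10 min at room temperature, then 3 min at 37 °C. It was solubilised with 0.8% NP40 and benzonase (60 min, 4 °C) and ultracentrifuged, and the supernatant was TMT-labelled for LC-MS/MS. Intensities were vsn-normalised, and the value is the fold change against the NP40-processed vehicle per replicate, from three independent experiments.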

Target	NP40-soluble protein abundance (concentration: 1mM)	NP40-soluble protein abundance (concentration: 2mM)	NP40-soluble protein abundance (concentration: 4mM)	NP40-soluble protein abundance (concentration: 6mM)	NP40-soluble protein abundance (concentration: 8mM)	NP40-soluble protein abundance (concentration: 10mM)
UniProt Q04727 and related entries	1 ± 0.02	1.01 ± 0.012	0.9614 ± 0.0064	0.9512 ± 0.0039	0.908 ± 0.028	0.948 ± 0.021
SORD (UniProt Q00796)	0.951 ± 0.031	0.963 ± 0.024	0.958 ± 0.043	1.08 ± 0.094	1.06 ± 0.054	1.09 ± 0.022
UniProt P55789 and related entries	1.01 ± 0.056	1.18 ± 0.14	1.07 ± 0.094	0.995 ± 0.1	1.04 ± 0.071	0.948 ± 0.09
UniProt P62072	1.01 ± 0.027	1.05 ± 0.074	0.957 ± 0.014	0.891 ± 0.046	0.86 ± 0.032	0.886 ± 0.019
FKBP1A (UniProt P62942)	1.01 ± 0.021	1.12 ± 0.027	1.02 ± 0.04	1.02 ± 0.039	0.994 ± 0.034	1.01 ± 0.064
UniProt Q01082 and related entries	1.05 ± 0.028	1.08 ± 0.035	1.05 ± 0.019	1.08 ± 0.06	1.05 ± 0.032	1.09 ± 0.056
UniProt Q01085-2	0.997 ± 0.044	0.976 ± 0.057	0.992 ± 0.029	0.957 ± 0.037	0.9409 ± 0.0074	0.952 ± 0.032
HDAC4 (UniProt P56524)	0.9823 ± 0.0059	1.01 ± 0.024	1 ± 0.037	0.977 ± 0.011	0.958 ± 0.024	0.986 ± 0.011
UniProt P57076	1 ± 0.041	1.06 ± 0.084	1.01 ± 0.011	1.06 ± 0.053	1.048 ± 0.0089	1.08 ± 0.034
UniProt Q02224 and related entries	0.95 ± 0.033	0.958 ± 0.029	0.902 ± 0.04	0.975 ± 0.028	0.938 ± 0.061	0.932 ± 0.024
UniProt P62273	0.9864 ± 0.0094	0.974 ± 0.046	0.96 ± 0.075	0.921 ± 0.044	0.806 ± 0.12	0.962 ± 0.09
UniProt P62857	0.941 ± 0.041	0.993 ± 0.078	0.919 ± 0.069	0.837 ± 0.071	0.74 ± 0.057	0.847 ± 0.092
UniProt P61129	1.03 ± 0.058	1.06 ± 0.02	0.992 ± 0.096	0.992 ± 0.02	1.01 ± 0.06	1 ± 0.11
RNASEL (UniProt Q05823)	1.09 ± 0.044	1.09 ± 0.062	1.11 ± 0.066	1.08 ± 0.039	1.09 ± 0.057	1.08 ± 0.05
KIF23 (UniProt Q02241)	1.07 ± 0.069	1.03 ± 0.034	1.095 ± 0.0069	1.07 ± 0.035	1.05 ± 0.029	1.07 ± 0.043

Full records from above. Values in the order: NP40-soluble protein abundance (concentration: 1mM) | NP40-soluble protein abundance (concentration: 2mM) | NP40-soluble protein abundance (concentration: 4mM) | NP40-soluble protein abundance (concentration: 6mM) | NP40-soluble protein abundance (concentration: 8mM) | NP40-soluble protein abundance (concentration: 10mM)
UniProt P61129 as listed: 1.03 ± 0.058 | 1.06 ± 0.02 | 0.992 ± 0.096 | 0.992 ± 0.02 | 1.01 ± 0.06 | 1 ± 0.11
HDAC4 (UniProt P56524) as listed: 0.9823 ± 0.0059 | 1.01 ± 0.024 | 1 ± 0.037 | 0.977 ± 0.011 | 0.958 ± 0.024 | 0.986 ± 0.011
